# Reference: patent US5998375 (dated 1999)
# Experiment: general procedure: Fmoc solid-phase peptide synthesis; Rink resin; HBTU in NMP; HOBT/EDAC; DCC symmetrical anhydrides or HOBt esters (Boc)
# Conditions: whole synthesis, scale 0.054 mmol
substance,measurement,value
F-a-G-F-T-G-A-R-K-S-A-R-K-L-A-N-Q-NH2,isolated mass,28 mg
